Measurements from PMC6497791.
Results are given in words; binding and its absence hold for the method and conditions named. Binding seen in cells or lysates may run through a third protein. Here binding means that the protein was enriched with, or labelled near, the bait; the list need not be complete.

Chains of the proteins cited; added tags and fusions are not shown. Residues count along the entry.
UniProt P22723, residues 39-474: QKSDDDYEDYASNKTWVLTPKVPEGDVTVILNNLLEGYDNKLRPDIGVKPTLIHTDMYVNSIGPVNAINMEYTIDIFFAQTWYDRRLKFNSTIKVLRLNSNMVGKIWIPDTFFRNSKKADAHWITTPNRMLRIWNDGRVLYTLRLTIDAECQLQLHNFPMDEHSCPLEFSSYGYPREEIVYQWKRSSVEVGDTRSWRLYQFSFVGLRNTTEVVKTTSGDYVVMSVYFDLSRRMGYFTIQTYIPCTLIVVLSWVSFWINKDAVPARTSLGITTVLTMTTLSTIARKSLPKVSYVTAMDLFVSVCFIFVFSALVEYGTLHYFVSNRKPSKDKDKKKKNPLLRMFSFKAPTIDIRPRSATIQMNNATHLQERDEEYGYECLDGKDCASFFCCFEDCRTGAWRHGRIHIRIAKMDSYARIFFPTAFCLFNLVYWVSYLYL
UniProt P38647, residues 47-679: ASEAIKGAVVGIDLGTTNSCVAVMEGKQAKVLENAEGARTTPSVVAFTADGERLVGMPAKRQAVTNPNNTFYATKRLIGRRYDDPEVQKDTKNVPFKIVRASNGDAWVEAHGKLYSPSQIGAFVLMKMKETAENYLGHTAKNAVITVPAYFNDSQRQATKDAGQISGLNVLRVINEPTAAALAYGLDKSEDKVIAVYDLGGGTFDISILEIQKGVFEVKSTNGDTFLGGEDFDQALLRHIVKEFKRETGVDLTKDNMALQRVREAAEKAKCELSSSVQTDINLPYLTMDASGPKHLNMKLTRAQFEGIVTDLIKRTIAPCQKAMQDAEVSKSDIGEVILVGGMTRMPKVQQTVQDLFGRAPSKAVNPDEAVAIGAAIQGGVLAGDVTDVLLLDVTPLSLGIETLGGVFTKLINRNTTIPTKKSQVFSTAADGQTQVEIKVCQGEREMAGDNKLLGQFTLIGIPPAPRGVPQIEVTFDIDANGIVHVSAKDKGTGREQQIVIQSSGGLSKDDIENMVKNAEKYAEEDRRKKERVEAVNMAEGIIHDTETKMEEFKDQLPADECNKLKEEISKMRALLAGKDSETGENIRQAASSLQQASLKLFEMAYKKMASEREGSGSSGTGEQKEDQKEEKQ
UniProt P52480: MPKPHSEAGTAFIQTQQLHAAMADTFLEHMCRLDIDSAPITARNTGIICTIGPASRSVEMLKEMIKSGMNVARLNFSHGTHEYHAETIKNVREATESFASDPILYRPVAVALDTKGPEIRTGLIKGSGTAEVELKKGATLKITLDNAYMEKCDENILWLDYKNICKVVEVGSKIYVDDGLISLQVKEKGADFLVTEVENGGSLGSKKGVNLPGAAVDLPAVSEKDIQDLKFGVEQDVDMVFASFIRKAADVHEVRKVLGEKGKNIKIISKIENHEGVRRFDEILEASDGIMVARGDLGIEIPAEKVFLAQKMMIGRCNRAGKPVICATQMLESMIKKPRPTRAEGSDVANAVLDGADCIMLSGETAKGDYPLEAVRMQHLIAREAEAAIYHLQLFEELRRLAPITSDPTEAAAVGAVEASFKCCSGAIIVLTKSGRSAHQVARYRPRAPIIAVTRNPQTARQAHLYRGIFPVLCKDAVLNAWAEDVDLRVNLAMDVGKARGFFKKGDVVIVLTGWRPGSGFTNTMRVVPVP
UniProt Q6PHN9: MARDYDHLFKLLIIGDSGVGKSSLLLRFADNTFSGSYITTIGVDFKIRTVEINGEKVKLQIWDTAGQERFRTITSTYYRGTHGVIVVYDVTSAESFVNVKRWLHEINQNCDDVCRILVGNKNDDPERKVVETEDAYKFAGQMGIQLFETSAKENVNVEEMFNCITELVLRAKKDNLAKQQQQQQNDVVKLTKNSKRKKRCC
UniProt Q62277: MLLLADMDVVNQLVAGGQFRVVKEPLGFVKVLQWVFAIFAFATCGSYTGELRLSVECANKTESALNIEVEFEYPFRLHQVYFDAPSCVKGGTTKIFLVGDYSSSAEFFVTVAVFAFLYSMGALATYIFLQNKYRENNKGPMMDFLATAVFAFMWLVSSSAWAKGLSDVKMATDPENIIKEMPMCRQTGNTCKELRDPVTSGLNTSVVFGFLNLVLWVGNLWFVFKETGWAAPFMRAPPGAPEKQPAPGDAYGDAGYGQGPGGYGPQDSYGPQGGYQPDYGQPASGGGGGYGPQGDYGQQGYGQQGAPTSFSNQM
UniProt Q3UHB8: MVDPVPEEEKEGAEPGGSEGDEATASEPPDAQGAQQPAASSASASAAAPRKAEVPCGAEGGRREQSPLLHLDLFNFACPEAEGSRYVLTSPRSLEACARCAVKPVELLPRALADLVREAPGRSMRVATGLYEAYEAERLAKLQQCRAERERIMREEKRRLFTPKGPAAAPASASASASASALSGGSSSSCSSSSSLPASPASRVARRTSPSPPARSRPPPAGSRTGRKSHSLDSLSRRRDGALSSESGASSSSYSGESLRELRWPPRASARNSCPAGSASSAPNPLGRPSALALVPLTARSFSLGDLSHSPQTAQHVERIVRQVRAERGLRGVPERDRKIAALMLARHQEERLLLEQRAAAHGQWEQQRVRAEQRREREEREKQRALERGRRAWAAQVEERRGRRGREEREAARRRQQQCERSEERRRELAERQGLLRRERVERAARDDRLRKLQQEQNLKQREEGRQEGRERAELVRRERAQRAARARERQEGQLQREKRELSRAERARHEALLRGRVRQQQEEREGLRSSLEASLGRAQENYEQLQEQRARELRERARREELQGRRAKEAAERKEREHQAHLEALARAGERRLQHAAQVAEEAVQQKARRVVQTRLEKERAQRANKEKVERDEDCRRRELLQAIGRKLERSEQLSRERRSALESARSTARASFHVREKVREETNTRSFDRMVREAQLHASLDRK
UniProt P97427: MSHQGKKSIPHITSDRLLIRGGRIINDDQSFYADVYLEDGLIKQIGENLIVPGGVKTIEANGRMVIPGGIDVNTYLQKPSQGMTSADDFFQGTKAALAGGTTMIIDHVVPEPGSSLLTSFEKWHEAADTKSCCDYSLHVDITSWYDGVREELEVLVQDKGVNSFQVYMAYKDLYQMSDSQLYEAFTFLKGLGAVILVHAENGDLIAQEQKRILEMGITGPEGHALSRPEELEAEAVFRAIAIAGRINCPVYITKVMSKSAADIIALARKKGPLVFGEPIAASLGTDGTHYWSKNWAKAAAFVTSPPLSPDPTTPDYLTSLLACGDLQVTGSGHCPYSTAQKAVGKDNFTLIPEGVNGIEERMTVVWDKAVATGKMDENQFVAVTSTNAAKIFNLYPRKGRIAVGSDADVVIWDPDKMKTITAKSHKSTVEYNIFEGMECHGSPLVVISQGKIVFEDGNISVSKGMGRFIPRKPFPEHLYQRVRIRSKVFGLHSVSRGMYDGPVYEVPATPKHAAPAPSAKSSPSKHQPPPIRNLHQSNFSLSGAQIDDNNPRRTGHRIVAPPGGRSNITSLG
UniProt P11276, residues 33-2477: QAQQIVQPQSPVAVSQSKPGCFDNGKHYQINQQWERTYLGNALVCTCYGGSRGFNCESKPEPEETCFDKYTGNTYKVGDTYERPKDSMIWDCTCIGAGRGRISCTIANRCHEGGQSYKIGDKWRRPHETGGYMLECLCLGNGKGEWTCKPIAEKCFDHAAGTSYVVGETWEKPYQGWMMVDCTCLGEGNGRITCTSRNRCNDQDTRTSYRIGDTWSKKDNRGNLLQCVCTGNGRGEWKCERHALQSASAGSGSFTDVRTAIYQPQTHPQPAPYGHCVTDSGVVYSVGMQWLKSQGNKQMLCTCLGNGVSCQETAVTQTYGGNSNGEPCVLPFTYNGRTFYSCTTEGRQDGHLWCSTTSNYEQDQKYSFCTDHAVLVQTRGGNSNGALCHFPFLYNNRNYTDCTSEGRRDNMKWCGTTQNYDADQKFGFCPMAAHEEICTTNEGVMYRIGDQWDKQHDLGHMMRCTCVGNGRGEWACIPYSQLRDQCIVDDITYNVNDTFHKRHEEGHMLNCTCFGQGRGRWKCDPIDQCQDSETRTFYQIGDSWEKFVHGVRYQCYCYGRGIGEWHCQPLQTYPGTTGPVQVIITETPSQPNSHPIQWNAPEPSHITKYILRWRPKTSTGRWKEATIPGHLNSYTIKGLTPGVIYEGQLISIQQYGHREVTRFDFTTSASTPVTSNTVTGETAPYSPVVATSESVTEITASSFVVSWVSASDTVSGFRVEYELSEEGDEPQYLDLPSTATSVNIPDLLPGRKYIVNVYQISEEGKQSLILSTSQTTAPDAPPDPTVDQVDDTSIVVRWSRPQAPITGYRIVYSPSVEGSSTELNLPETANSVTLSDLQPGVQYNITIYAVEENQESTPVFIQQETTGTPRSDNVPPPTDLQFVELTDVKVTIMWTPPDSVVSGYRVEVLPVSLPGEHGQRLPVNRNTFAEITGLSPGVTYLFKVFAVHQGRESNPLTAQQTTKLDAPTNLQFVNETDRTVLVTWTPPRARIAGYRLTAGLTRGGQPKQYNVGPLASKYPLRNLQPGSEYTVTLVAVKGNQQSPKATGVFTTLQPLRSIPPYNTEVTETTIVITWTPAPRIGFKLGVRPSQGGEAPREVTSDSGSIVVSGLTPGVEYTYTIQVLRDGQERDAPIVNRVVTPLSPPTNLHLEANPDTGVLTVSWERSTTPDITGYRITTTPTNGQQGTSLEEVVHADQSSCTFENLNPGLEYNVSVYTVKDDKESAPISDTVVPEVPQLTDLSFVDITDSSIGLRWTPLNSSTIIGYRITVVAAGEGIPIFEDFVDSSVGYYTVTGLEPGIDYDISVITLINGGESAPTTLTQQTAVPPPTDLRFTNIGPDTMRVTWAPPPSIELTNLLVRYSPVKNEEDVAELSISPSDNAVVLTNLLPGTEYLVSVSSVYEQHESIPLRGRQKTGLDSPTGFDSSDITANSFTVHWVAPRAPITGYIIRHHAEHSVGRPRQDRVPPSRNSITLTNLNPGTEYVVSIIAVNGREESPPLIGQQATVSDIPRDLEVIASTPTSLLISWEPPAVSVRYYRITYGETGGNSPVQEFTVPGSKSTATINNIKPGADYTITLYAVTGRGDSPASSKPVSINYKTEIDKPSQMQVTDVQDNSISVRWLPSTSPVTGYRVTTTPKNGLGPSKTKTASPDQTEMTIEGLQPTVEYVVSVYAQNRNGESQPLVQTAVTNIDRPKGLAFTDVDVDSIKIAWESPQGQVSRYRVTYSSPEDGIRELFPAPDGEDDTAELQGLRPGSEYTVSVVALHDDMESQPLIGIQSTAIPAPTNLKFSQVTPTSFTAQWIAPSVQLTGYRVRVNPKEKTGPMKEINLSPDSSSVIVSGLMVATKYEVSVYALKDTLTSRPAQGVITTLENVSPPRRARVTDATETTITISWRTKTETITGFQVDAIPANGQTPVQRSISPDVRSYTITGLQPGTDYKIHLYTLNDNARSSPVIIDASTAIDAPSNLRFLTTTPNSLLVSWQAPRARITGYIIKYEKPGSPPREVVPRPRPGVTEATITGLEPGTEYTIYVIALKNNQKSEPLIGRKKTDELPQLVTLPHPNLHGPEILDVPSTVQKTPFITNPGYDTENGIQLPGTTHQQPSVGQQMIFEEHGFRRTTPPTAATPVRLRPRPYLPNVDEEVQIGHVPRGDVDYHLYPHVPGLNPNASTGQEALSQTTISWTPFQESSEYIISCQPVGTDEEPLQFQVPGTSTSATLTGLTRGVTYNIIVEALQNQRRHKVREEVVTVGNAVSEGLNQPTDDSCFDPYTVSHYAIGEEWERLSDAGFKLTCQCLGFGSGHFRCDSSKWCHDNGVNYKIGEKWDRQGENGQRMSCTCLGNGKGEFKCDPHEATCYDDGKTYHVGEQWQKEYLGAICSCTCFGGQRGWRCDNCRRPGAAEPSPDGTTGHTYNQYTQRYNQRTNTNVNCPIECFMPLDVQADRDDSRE
UniProt P62874: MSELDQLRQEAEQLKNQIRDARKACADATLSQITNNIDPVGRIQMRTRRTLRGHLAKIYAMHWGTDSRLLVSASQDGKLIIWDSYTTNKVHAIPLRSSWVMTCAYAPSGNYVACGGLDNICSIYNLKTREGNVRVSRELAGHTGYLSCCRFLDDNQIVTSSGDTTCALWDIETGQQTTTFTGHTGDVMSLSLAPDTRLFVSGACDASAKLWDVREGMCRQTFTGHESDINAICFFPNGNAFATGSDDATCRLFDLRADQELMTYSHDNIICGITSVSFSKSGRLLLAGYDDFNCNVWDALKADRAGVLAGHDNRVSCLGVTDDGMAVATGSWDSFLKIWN
UniProt O35129: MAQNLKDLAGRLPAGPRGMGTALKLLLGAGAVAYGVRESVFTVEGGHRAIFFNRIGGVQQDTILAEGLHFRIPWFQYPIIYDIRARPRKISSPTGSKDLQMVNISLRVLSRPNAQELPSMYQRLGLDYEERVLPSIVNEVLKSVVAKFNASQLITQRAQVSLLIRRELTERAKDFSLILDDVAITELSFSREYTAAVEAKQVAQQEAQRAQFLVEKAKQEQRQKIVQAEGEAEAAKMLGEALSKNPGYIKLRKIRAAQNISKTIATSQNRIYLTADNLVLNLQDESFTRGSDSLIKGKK
UniProt P63044: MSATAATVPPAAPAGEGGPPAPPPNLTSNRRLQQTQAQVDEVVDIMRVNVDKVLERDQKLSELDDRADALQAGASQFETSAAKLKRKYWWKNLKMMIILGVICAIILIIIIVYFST

Biological target: GABA type A receptor γ2 subunit (mouse (endogenous in cortical tissue)) (UniProt P22723)
Assay: affinity purification with mass spectrometry; mouse cortical tissue lysate (mice injected with vehicle or 10 mg/kg DZP, 12 h) in co-IP buffer (50 mM Tris HCl pH 7.6, 50 mM NaCl, 0.25% Igepal, 1 mM EDTA), immunoprecipitated overnight with rabbit γ2 subunit antibody or rabbit IgG, Protein A Sepharose, 4°C; label-free HPLC-ESI-MS/MS; hits at least 3:1 enriched over IgG control

Row | Substance | binding
1 | Chaperonin containing TCP1 subunit 6A (from UniProt P80317 1-531) | binds
2 | Cofilin 1 (from UniProt P18760 1-166) | binds
3 | Dimethylarginine dimethylaminohydrolase 1 (from UniProt Q9CWS0 1-285) | binds
4 | ELAV like RNA binding protein 2 (from UniProt Q60899 1-360) | binds
5 | Erythrocyte membrane protein band 4.1 like 1 (from UniProt Q9Z2H5 1-879) | binds
6 | Glutamate metabotropic receptor 2 (from UniProt Q14BI2 19-872) | binds
7 | Heat shock protein family A (Hsp70) member 9 (from UniProt P38647 47-679) | binds
8 | Heterogeneous nuclear ribonucleoprotein A3 (from UniProt Q8BG05 1-379) | binds
9 | Potassium voltage-gated channel subfamily Q member 3 (from UniProt Q8K3F6 1-873) | binds
10 | Proteasome 26S subunit, ATPase 6 (from UniProt P62334 1-389) | binds
11 | Pyruvate kinase M1/2 (from UniProt P52480 1-531) | binds
12 | RAB35, member RAS oncogene family (from UniProt Q6PHN9 1-201) | binds
13 | RNA binding motif protein, X-linked like-1 (from UniProt Q91VM5 1-388) | binds
14 | Synaptophysin (from UniProt Q62277 1-314) | binds
15 | Tumor protein D52 like 2 (from UniProt Q9CYZ2 1-220) | binds
16 | WD repeat domain 7 (from UniProt Q920I9 1-1489) | binds

Second part, the substance after the results:

Row | binding | Substance
17 | binds | ATP synthase F1 subunit beta (from UniProt P56480 47-529)
18 | binds | Adaptor related protein complex 2 subunit alpha 1 (from UniProt P17426-2 1-955)
19 | binds | Calcium/calmodulin dependent protein kinase II alpha (from UniProt P11798 1-478)
20 | binds | Coiled-coil domain containing 177 (from UniProt Q3UHB8 1-706)
21 | binds | Collapsin response mediator protein 1 (from UniProt P97427 1-572)
22 | binds | Cyclin dependent kinase 5 (from UniProt P49615 1-292)
23 | binds | Eukaryotic translation initiation factor 3 subunit J (from UniProt Q3UGC7 1-261)
24 | binds | Fibronectin 1 (from UniProt P11276 33-2477)
25 | binds | G protein subunit beta 1 (from UniProt P62874 1-340)
26 | binds | Prohibitin 2 (from UniProt O35129 1-299)
27 | binds | Protein phosphatase 3 catalytic subunit alpha (from UniProt P63328 1-521)
28 | binds | RAB3A, member RAS oncogene family (from UniProt P63011 1-220)
29 | binds | Synaptotagmin 1 (from UniProt P46096 1-421)
30 | binds | Tubulin beta 6 class V (from UniProt Q922F4 1-447)
31 | binds | Tyrosine 3-monooxygenase/tryptophan 5-monooxygenase activation protein epsilon (14-3-3 epsilon) (from UniProt P62259 1-255)
32 | binds | Vesicle associated membrane protein 2 (from UniProt P63044 1-116)
